According to PubChem BioAssay AID623978 (Broad Institute, 2012):
Inconclusive results, whose numbers are uncertain, are shown with a selection of clear calls. Activity calls are given as the source filed them.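 Rule for the calls: active = every replicate run active, each with half-maximal inhibition reached at or below twice the top valid dose; inconclusive = runs disagree, or fits are weak or poor; inactive = every run inactive, including upward signal shifts.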

Chains of the proteins cited; added tags and fusions are not shown. Lines headed by an entry give the natural chain unless they say otherwise; changes in a name come on top.
UniProt P49840: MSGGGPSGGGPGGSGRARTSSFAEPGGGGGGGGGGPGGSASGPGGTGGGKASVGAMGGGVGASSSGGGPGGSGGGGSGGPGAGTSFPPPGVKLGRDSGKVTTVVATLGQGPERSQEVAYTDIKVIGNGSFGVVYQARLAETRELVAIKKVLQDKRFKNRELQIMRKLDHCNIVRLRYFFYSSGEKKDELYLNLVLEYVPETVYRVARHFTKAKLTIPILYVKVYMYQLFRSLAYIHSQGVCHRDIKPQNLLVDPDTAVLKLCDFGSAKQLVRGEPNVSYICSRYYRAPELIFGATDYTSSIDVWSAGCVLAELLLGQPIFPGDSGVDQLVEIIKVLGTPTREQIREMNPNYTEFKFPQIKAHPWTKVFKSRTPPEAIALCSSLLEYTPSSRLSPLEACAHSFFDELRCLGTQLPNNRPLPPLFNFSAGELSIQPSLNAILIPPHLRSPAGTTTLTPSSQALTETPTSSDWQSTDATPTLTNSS

The compounds below were run against Glycogen synthase kinase-3 alpha (Homo sapiens) (UniProt P49840) (assay: human GSK3 alpha kinase inhibition, dose response, selectivity assay for GSK3beta inhibitor project, biochemical, microfluidics, dry powder samples, set 2 (AID 623978)). Details: GSK3a microfluidic mobility shift, percent conversion; at 35 µM (top of the series) unless noted.
With `Nc1nonc1-n1nnc(C(=O)N/N=C/c2cccc(Cl)c2)c1CN1CCCCCC1` the activity change, negative = inhibition was inconclusive: -52%.
`O=C(Cc1cccc2ccccc12)Nc1cn(C2CCC2)cn1` was tested, and the activity change, negative = inhibition was inactive: -21.6%.
For `Cc1ccc(S(=O)(=O)N2CCN(CC(=O)N/N=C/c3ccccn3)CC2)cc1`, the activity change, negative = inhibition was inactive: -22%.
In the case of `COc1ccc(/C=C2\SC(=NCc3ccccc3)NC2=O)cc1`, the activity change, negative = inhibition is reported as inconclusive: -35.6%.
For `Nc1nonc1-n1nnc(C(=O)N/N=C/c2c(F)cccc2Cl)c1-c1ccc2c(c1)OCO2`, the activity change, negative = inhibition was inconclusive: -34.4% [at 1 µM].
